In the supplement of paper PMC10689618:
Counter-ions that a name gives are not always drawn. This is one part of the list. Single values are uncertain, as repeats are few or missing.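 Labelled rat cortical synaptosomes were engulfed by primary human fetal astrocytes. Engulfment equaled a red/green ratio, corrected for calcein live-cell signal and normalized to the plate median. Compounds were toxic when calcein dropped over 30%, and reduced phagocytosis when below 70% of the median above 5 µM.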

Tests used:
Human fetal astrocytes [1] = test: loss of total cells relative to no-compound high-control median (toxicity); higher = more toxic (fewer cells); conditions: 24 h
Human fetal astrocytes [2] = test: synaptosome phagocytosis (pHrodo/calcein intensity ratio) relative to plate median of data wells; higher = more phagocytosis; conditions: 24 h

Structure (SMILES) | loss of total cells (Human fetal astrocytes [1]; 1.39 µM) | loss of total cells (Human fetal astrocytes [1]; 2.78 µM) | loss of total cells (Human fetal astrocytes [1]; 5.56 µM) | loss of total cells (Human fetal astrocytes [1]; 11.11 µM) | loss of total cells (Human fetal astrocytes [1]; 22.22 µM) | synaptosome phagocytosis (Human fetal astrocytes [2]; 1.39 µM) | synaptosome phagocytosis (Human fetal astrocytes [2]; 2.78 µM) | synaptosome phagocytosis (Human fetal astrocytes [2]; 5.56 µM) | synaptosome phagocytosis (Human fetal astrocytes [2]; 11.11 µM) | synaptosome phagocytosis (Human fetal astrocytes [2]; 22.22 µM)
C=CC(N)CCC(=O)O (racemic) [(±)-gamma-Vinyl GABA] | 13.3% | 11.9% | -6.3% | -10.9% | 16.4% | 141% | 92.9% | 131% | 111% | 106%
CC(=O)NCCCCCC(=O)O | 27.8% | 13.4% | 9.4% | -1.3% | 9.8% | 132% | 105% | 106% | 71.5% | 103%
COc1ccc2c(c1OC)C(=O)O[C@@H]2[C@H]1c2c(cc3c(c2OC)OCO3)CCN1C | -8.3% | -8.8% | 13.5% | 0.8% | 0% | 99.5% | 121% | 93.9% | 98.1% | 102%
c1ccc(C2CN3CCSC3=N2)cc1 (stereo not given) [Tetramisole hydrochloride] | -24.2% | -14.3% | -6.2% | 33.1% | 5.9% | 75.8% | 78.4% | 107% | 130% | 90.4%
C[C@H]1[C@H]2CC[C@H]3[C@@H]4CC=C5C[C@@H](N(C)C)CC[C@]5(C)[C@H]4CC[C@]23CN1C | -31.1% | -9.7% | -2.9% | -8.1% | 3.7% | 80.6% | 77.5% | 71.6% | 83.7% | 64.8%
CCN(CC)CCOC(=O)C(c1ccccc1)C1CCCCC1 (stereo not given) | 4% | 19.1% | 21% | 10.5% | 10.6% | 50.8% | 90.5% | 93.9% | 98.6% | 73.1%
Cc1cc(=O)oc2cc(O)c(O)cc12 | -40.2% | -12.6% | -24.9% | -0.7% | 8.1% | 98.5% | 90.4% | 84.2% | 104% | 59.1%
CO[C@@]1(NC(=O)C(C(=O)O)c2ccc(O)cc2)C(=O)N2C(C(=O)O)=C(CSc3nnnn3C)CO[C@@H]21 (stereo not given in full) | -19.1% | -16.8% | 15.3% | -10.9% | 4.5% | 110% | 105% | 114% | 116% | 120%
O=C(CCBr)N1CCN(C(=O)CCBr)CC1 | -25.8% | -32.5% | -4.3% | 29.2% | 0.9% | 123% | 124% | 136% | 141% | 131%
CC(=O)N1CCN(c2ccc(OCC3COC(Cn4ccnc4)(c4ccc(Cl)cc4Cl)O3)cc2)CC1 (stereo not given) | -4.5% | 1% | 7% | -3.2% | 32.5% | 100% | 104% | 107% | 93.4% | 101%
COC(=O)c1c(C)c2c(c(C)c1O)OC(=O)c1c(C)c(Cl)c(O)c(Cl)c1O2 | -19.2% | -12% | 33.6% | 39.4% | 4.8% | 80.8% | 100% | 108% | 58.7% | 102%
CC1(C)CC[C@]2(C)CC[C@]3(C)C(=CC[C@@H]4[C@@]5(C)CC[C@H](O)C(C)(C)[C@@H]5CC[C@]43C)[C@@H]2C1 [beta-AMYRIN] | -4% | 13.3% | -19.8% | 20% | -16.7% | 119% | 94.3% | 72.6% | 108% | 105%
CCCCCCCCCc1ccc(OCCOCCOCCOCCOCCOCCOCCOCCOCCO)cc1 | 22.1% | 10.6% | -0.8% | 26.5% | 17.4% | 133% | 70.9% | 98.8% | 45.3% | 32.3%
CC(=O)Oc1ccc2c(c1C(C)C)CCC1C(C)(C)CCC[C@]21C (stereo not given in full) | -16.3% | -11.3% | 34.4% | 18.1% | 3.3% | 102% | 106% | 154% | 123% | 98.9%
CC(=O)c1cc2ccccc2oc1=O | 18.4% | 20.6% | 25.4% | 9.6% | 14.4% | 123% | 133% | 103% | 120% | 138%
COc1ccc(-c2coc3c(O)c(OC)ccc3c2=O)cc1 | 23.6% | 0.7% | -12.2% | 37.4% | 7% | 152% | 90.7% | 105% | 120% | 96.7%
CC(=O)O[C@H]1CC[C@@]2(C)[C@H](CC[C@@H]3[C@@H]2CC[C@]2(C)[C@@H]4[C@H](C[C@@H]32)O[C@]2(CC[C@@H](C)CO2)[C@H]4C)C1 | -5.4% | 4.7% | 41.2% | 46.5% | -5.6% | 105% | 104% | 136% | 110% | 84.5%
O=C1C(=O)c2ccccc2C(O)=C1C1CCC(c2ccc(Cl)cc2)CC1 (stereo not given) | 0% | -45.2% | 12.4% | -12.1% | 19.6% | 120% | 95.8% | 133% | 87.2% | 103%
O=C1c2ccccc2C(=O)C1c1ccc(Br)cc1 | 6.5% | -45.2% | 6.8% | 42.3% | -7.8% | 116% | 105% | 123% | 149% | 99.3%
CCCCC1C(=O)N(c2ccccc2)N(c2ccc(O)cc2)C1=O (stereo not given) | 10% | 2.7% | 29.7% | 80.5% | 67.4% | 95.4% | 93.4% | 56.6% | 20.1% | 11.1%
C[n+]1cccc(C(=O)[O-])c1 | -9.8% | -1.1% | -5.1% | 0% | 14.8% | 119% | 86.6% | 54.1% | 82.4% | 86.7%

Arranged by number of heavy atoms (rising): some entries from above.
Structure (SMILES) | loss of total cells (Human fetal astrocytes [1]; 1.39 µM) | loss of total cells (Human fetal astrocytes [1]; 2.78 µM) | loss of total cells (Human fetal astrocytes [1]; 5.56 µM) | loss of total cells (Human fetal astrocytes [1]; 11.11 µM) | loss of total cells (Human fetal astrocytes [1]; 22.22 µM) | synaptosome phagocytosis (Human fetal astrocytes [2]; 1.39 µM) | synaptosome phagocytosis (Human fetal astrocytes [2]; 2.78 µM) | synaptosome phagocytosis (Human fetal astrocytes [2]; 5.56 µM) | synaptosome phagocytosis (Human fetal astrocytes [2]; 11.11 µM) | synaptosome phagocytosis (Human fetal astrocytes [2]; 22.22 µM)
C=CC(N)CCC(=O)O (racemic) [(±)-gamma-Vinyl GABA] | 13.3% | 11.9% | -6.3% | -10.9% | 16.4% | 141% | 92.9% | 131% | 111% | 106%
C[n+]1cccc(C(=O)[O-])c1 | -9.8% | -1.1% | -5.1% | 0% | 14.8% | 119% | 86.6% | 54.1% | 82.4% | 86.7%
CC(=O)c1cc2ccccc2oc1=O | 18.4% | 20.6% | 25.4% | 9.6% | 14.4% | 123% | 133% | 103% | 120% | 138%

(list continues)

Structure (SMILES) | loss of total cells (Human fetal astrocytes [1]; 1.39 µM) | loss of total cells (Human fetal astrocytes [1]; 2.78 µM) | loss of total cells (Human fetal astrocytes [1]; 5.56 µM) | loss of total cells (Human fetal astrocytes [1]; 11.11 µM) | loss of total cells (Human fetal astrocytes [1]; 22.22 µM) | synaptosome phagocytosis (Human fetal astrocytes [2]; 1.39 µM) | synaptosome phagocytosis (Human fetal astrocytes [2]; 2.78 µM) | synaptosome phagocytosis (Human fetal astrocytes [2]; 5.56 µM) | synaptosome phagocytosis (Human fetal astrocytes [2]; 11.11 µM) | synaptosome phagocytosis (Human fetal astrocytes [2]; 22.22 µM)
NC(C(=O)O)C(O)C(=O)O (stereo not drawn) [d,l-threo-3-HYDROXYASPARTIC ACID] | -11.5% | -13.4% | 0.7% | 0.7% | 9.6% | 107% | 102% | 76.7% | 99.9% | 125%
CC(N)C12CC3CC(CC(C3)C1)C2 (stereo not given) | 32.3% | -40.5% | 0% | -1.6% | 7.2% | 107% | 74.5% | 71.4% | 77.6% | 81.3%
COc1c(CC(=O)c2cc3c(cc2O)OC(C)(C)C(O)C3)ccc2c1C=CC(C)(C)O2 (stereo not given) | -8.3% | 16.6% | -19.8% | 16.1% | -12.2% | 108% | 108% | 104% | 99.2% | 86.8%
N[C@@H](C(=O)N[C@@H]1C(=O)N2C(C(=O)O)=C(Cl)CS[C@H]12)c1ccccc1 | -9.2% | -3.7% | -4.2% | -8.4% | 0.3% | 133% | 150% | 112% | 89.9% | 99.8%
N=C(N)N | 19.1% | 4.7% | 0.7% | 2.9% | 1.5% | 122% | 106% | 98.5% | 96.6% | 139%
C[C@]12CCC(=O)C=C1CC[C@@H]1[C@@H]2[C@@H](O)C[C@@]2(C)[C@H]1CC[C@]2(O)C(=O)COC(=O)CCC(=O)O | 0.9% | -29.5% | -6.3% | -7.8% | 5.8% | 131% | 122% | 128% | 101% | 118%
OC[C@H]1O[C@@H](O[C@@H]2[C@@H](CO)OC(O)(CO)[C@H]2O)[C@H](O)[C@@H](O)[C@H]1O (mixture of isomers) | 6.2% | -30.8% | 10.5% | -7.8% | 37.4% | 104% | 95.4% | 92.8% | 99.1% | 116%
O=C(O)c1cc(O)c2c(c1)[C@H]([C@H]1c3cc(C(=O)O)cc(O)c3C(=O)c3c(O[C@@H]4O[C@H](CO)[C@@H](O)[C@H](O)[C@H]4O)cccc31)c1cccc(O[C@@H]3O[C@H](CO)[C@@H](O)[C@H](O)[C@H]3O)c1C2=O | -11.6% | -16.8% | 11.7% | -7% | 9.6% | 93.9% | 126% | 119% | 102% | 108%
Nc1ncnc2c1ncn2[C@@H]1O[C@H](COP(=O)(O)O)[C@@H](O)[C@H]1O | 8% | -33.6% | -3.5% | -3.7% | 6.4% | 111% | 109% | 104% | 116% | 120%
CNc1ccccc1C(=O)N1CCc2c([nH]c3ccccc23)C1=O | -26.2% | -6.1% | -4.4% | -2% | 0% | 87.2% | 54.7% | 98.8% | 51.2% | 53.9%
COc1cc(NS(C)(=O)=O)ccc1Nc1c2ccccc2nc2ccccc12 | 32.3% | -18.3% | 7.5% | 36.4% | 14.6% | 120% | 105% | 86.4% | 91.5% | 62.4%
COc1cc(Cc2cnc(N)nc2N)cc(OC)c1OC [Trimethoprim] | 5% | -15.9% | -23% | 0.3% | 31.9% | 106% | 89.8% | 153% | 104% | 102%
COc1cc(OC)c(C(C)=O)c(O)c1C | -16.3% | 10% | -18.3% | 15.5% | 1.1% | 127% | 125% | 80.6% | 110% | 108%
C#C[C@]1(OC(C)=O)CC[C@H]2[C@@H]3CCC4=CC(=O)CC[C@@H]4[C@H]3CC[C@@]21C | 0.3% | -25.4% | -2.1% | 6.6% | -11.2% | 84.8% | 63.7% | 99.2% | 88.2% | 97%
COc1ccccc1OCC(O)COC(N)=O (stereo not given) | -55.6% | -15.5% | 9.9% | -14.8% | 13.6% | 92.9% | 93.5% | 94.2% | 128% | 123%
CC(C)(Oc1ccc(CCNC(=O)c2ccc(Cl)cc2)cc1)C(=O)O | 17.4% | 4.6% | -4.5% | -32% | -4.5% | 100% | 81.4% | 107% | 118% | 89.1%
O=c1c(-c2cc(O)c(O)c(O)c2)coc2cc(O)c(O)c(O)c12 | 10.5% | 35% | 38.4% | 40.6% | 41.7% | 98.7% | 150% | 104% | 136% | 122%
COc1cccc2c1CCC1CC(=O)CC[C@]21C (stereo not given in full) | -27.2% | 12% | -16.8% | 10.3% | -8.5% | 83.3% | 108% | 88.6% | 103% | 116%
CCCCCCCCNC(C)C(O)c1ccc(SC(C)C)cc1 (stereo not given) | 6.6% | 8.8% | 23.7% | -37.5% | 71.4% | 58.3% | 75% | 72.3% | 3.3% | 24.4%
Cc1c(C(N)=O)cc([N+](=O)[O-])cc1[N+](=O)[O-] | 20.6% | 24.2% | 21% | -9.6% | 6.1% | 93.6% | 136% | 99.8% | 92.2% | 154%
